Data as given in PubChem BioAssay AID652259 (Drosophila RNAi Screening Center, 2013).
The screen tested about 22,000 reagents; this is an unselected part of those that have a named target and a result. In the full data, 233 (1.1%) got an active call. 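Light values are raw, unnormalised plate reads; the ratio scores behind the reporter calls were not deposited.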 Names joined by + are all predicted targets of the reagent. The record does not give: the amount of reagent, the time to read-out, the dose of the treatment.

Aim: 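Knock-downs that push a Wingless-driven reporter up or down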 (primary screen)
Cells: Drosophila clone 8 imaginal disc epithelial cells
Reagents: long dsRNA against Drosophila genes
Treatment: pathway stimulated by co-transfected Wingless expression plasmid
Read-out: 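Dual luciferase reads per well after Wingless plasmid stimulation: reporter firefly light and Renilla control light; activity is firefly divided by Renilla, a ratio not deposited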
Reading the numbers: firefly reporter light: higher = more Wg reporter light, before normalisation; Renilla control light: higher = more transfected or surviving cells
Active means: 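a knock-down is a candidate when at least two out of four statistical tests show it departing from its plate mean; one test alone signals a weak candidate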
Calls: active = candidate regulator (raises or lowers reporter); inactive = not a candidate

Target gene	DRSC id	reporter change call, replicate 1	firefly reporter light, replicate 1	firefly reporter light, replicate 2	Renilla control light, replicate 1	Renilla control light, replicate 2	activity call
CG33288	DRSC11484		4012		1381		inactive
Cap-D3	DRSC02349		3386	5634	966	1207	inactive
CG17646	DRSC00507		14992		6313		inactive
iotaTry	DRSC07634		6258		2278		inactive
Dlc90F	DRSC16649		2072	5440	1142	1899	inactive
CG17493	DRSC03798		2272	7691	537	2202	inactive
Aptx	DRSC15768		14588		3688		inactive
ATPsynE	DRSC15476		8708		3377		inactive
CG13919	DRSC08388		4583		2007		inactive
Prosbeta4	DRSC02603		1349	3900	324	1410	inactive
tplus3a + tplus3b	DRSC03687		13984		8100		inactive
Tsr1	DRSC11821		3529		690		inactive
Pgant5	DRSC03149		8352		2976		inactive
CG2200	DRSC19840		19144		9157		inactive
PCNA2	DRSC02030		2989	6034	804	2668	inactive
CG34462	DRSC10768		1192	8307	1049	3685	inactive
CG3740	DRSC18508		16422		12316		inactive
CG12523	DRSC09895		8048		3542		inactive
CG34320 (retired record)	DRSC17682		4283		1760		inactive
CG6142	DRSC15976		24105		14950		inactive
PHDP	DRSC04635		3273	6905	1066	3033	inactive
Hsf	DRSC07443		13344		4226		inactive
ase	DRSC18739		18736		11552		inactive
Spag1	DRSC15331		7578		2905		inactive
GstE14	DRSC06881		7210		2742		inactive
del	DRSC03170		14132		4043		inactive
CG9316	DRSC03195		2544	8377	802	3096	inactive
D	DRSC11132		6085		1958		inactive
CG14717	DRSC14940		13354		3341		inactive
Kua	DRSC02100		4723	10194	929	3170	inactive
Dsp1	DRSC20315		13748		1543		inactive
CAH6	DRSC15505		10269		3921		inactive
CG12986	DRSC19506		18906		10820		inactive
rg	DRSC17377		5316		2304		inactive
rg	DRSC17726		3691	3943	1052	1232	inactive
rg	DRSC18049		25218		12621		inactive
Vps13	DRSC06817		2022	6689	700	2066	inactive
Ir48c	DRSC06154		4437		1617		inactive
nAChRalpha1	DRSC13664		3111		545		inactive
nAChRalpha1	DRSC13670		3685		371		inactive
nAChRalpha1	DRSC13672		3578		1883		inactive
nAChRalpha1	DRSC17008		24596		16192		inactive
Grp170	DRSC18524		3815	5697	1512	2864	inactive
fy	DRSC03533		2427	5819	773	2439	inactive
TTLL1A	DRSC20121		1392	5108	776	2068	inactive
mal	DRSC20581		2916	5826	1073	2459	inactive
Sytalpha	DRSC02869		2528	5776	1019	3436	inactive
jub	DRSC19367		1162	3732	645	1875	inactive
Pcd	DRSC16785		7920		2948		inactive
dysc	DRSC10273		8411		3651		inactive
dysc	DRSC11040		11226		3687		inactive
dysc	DRSC22334		7.13e5	7.13e5	3.55e5	3.74e5	inactive
dysc	DRSC22437		6.72e5	7.27e5	1.81e5	1.53e5	inactive
dysc	DRSC22824		5.85e5	6.17e5	2.38e5	3.06e5	inactive
p38a	DRSC16743		18320		16714		inactive
CG42507 + Trl	DRSC09325		2953		1404		inactive
CG42507 + Trl	DRSC11308	Wg reporter activity raised	4268		273		active
CG9948	DRSC11104		5232		2760		inactive
CG34223	DRSC05268		18561		13312		inactive
CG8788	DRSC07267		2304	4882	816	3171	inactive
Eogt	DRSC00727		14100		5988		inactive
para	DRSC19141		3865		960		inactive
para	DRSC20360		20108		9209		inactive
Or94a	DRSC16772		13738		10800		inactive
CG15456	DRSC20527		17048		11799		inactive
CG9578	DRSC20694		3546	10790	1206	3930	inactive
Act5C	DRSC17723		21821		10581		inactive
CG30280	DRSC21761		3.73e5	5.60e5	1.37e5	1.40e5	inactive
Usp8	DRSC15876		3824	10362	1661	2674	inactive
Liprin-alpha	DRSC02132		9056		3319		inactive
CG31468	DRSC13637		4496		2189		inactive
CG8997	DRSC01900		1698	4375	904	2411	inactive
CG13318	DRSC14581		18617		3901		inactive
